Consider four molecules from paper PMC11354755.

The chains behind the UniProt entries cited, without tags or fusion partners.
UniProt P39081: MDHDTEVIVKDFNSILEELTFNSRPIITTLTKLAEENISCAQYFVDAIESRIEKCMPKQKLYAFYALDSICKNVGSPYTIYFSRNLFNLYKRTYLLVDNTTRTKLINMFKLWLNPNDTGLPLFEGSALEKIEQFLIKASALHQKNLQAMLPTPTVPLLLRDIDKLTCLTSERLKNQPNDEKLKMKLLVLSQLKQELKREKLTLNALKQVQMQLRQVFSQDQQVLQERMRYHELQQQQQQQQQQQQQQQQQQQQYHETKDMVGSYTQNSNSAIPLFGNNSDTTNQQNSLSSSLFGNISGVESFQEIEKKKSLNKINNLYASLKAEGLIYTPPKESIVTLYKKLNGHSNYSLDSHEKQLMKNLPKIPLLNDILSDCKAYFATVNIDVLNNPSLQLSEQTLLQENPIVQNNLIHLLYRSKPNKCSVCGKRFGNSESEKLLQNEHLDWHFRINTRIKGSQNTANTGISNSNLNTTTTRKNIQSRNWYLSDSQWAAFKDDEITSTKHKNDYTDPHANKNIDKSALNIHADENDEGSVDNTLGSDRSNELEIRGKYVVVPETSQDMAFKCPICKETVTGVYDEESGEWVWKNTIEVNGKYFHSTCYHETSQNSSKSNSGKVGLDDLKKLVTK

Results are given in words; binding and its absence hold for the method and conditions named. In cells and extracts the contact can be indirect. Here binding means that the protein was enriched with, or labelled near, the bait; the list need not be complete.

T1: TFIIB sua7-1 mutant (E62K) (S. cerevisiae) (UniProt P29055)
T1 sequence: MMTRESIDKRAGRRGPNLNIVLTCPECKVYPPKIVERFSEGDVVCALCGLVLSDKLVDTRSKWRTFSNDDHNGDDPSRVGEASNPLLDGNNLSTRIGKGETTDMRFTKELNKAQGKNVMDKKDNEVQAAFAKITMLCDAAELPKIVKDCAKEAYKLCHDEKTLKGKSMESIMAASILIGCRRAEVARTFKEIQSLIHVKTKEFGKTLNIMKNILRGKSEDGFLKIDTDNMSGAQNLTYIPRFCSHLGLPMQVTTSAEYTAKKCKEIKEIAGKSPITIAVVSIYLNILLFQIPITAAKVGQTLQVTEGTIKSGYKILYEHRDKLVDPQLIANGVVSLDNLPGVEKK

B1: Clp1 (protein, UniProt Q08685 1-445)
chain: MASLPGIDEHTTSEELITGDNEWHKLVIPKGSDWQIDLKAEGKLIVKVNSGIVEIFGTELAVDDEYTFQNWKFPIYAVEETELLWKCPDLTTNTITVKPNHTMKYIYNLHFMLEKIRMSNFEGPRVVIVGGSQTGKTSLSRTLCSYALKFNAYQPLYINLDPQQPIFTVPGCISATPISDILDAQLPTWGQSLTSGATLLHNKQPMVKNFGLERINENKDLYLECISQLGQVVGQRLHLDPQVRRSGCIVDTPSISQLDENLAELHHIIEKLNVNIMLVLCSETDPLWEKVKKTFGPELGNNNIFFIPKLDGVSAVDDVYKRSLQRTSIREYFYGSLDTALSPYAIGVDYEDLTIWKPSNVFDNEVGRVELFPVTITPSNLQHAIIAITFAERRADQATVIKSPILGFALITEVNEKRRKLRVLLPVPGRLPSKAMILTSYRYLE
B2: Rna15 (protein, UniProt P25299 1-296)
chain: MNRQSGVNAGVQNNPPSRVVYLGSIPYDQTEEQILDLCSNVGPVINLKMMFDPQTGRSKGYAFIEFRDLESSASAVRNLNGYQLGSRFLKCGYSSNSDISGVSQQQQQQYNNINGNNNNNGNNNNNSNGPDFQNSGNANFLSQKFPELPSGIDVNINMTTPAMMISSELAKKPKEVQLKFLQKFQEWTRAHPEDAVSLLELCPQLSFVTAELLLTNGICKVDDLIPLASRPQEEASATNNNSVNEVVDPAVLNKQKELLKQVLQLNDSQISILPDDERMAIWDLKQKALRGEFGAF
B3: Rna14 (protein, UniProt P25298 1-677)
chain: MSSSTTPDLLYPSADKVAEPSDNIHGDELRLRERIKDNPTNILSYFQLIQYLETQESYAKVREVYEQFHNTFPFYSPAWTLQLKGELARDEFETVEKILAQCLSGKLENNDLSLWSTYLDYIRRKNNLITGGQEARAVIVKAFQLVMQKCAIFEPKSSSFWNEYLNFLEQWKPFNKWEEQQRIDMLREFYKKMLCVPFDNLEKMWNRYTQWEQEINSLTARKFIGELSAEYMKARSLYQEWLNVTNGLKRASPINLRTANKKNIPQPGTSDSNIQQLQIWLNWIKWERENKLMLSEDMLSQRISYVYKQGIQYMIFSAEMWYDYSMYISENSDRQNILYTALLANPDSPSLTFKLSECYELDNDSESVSNCFDKCTQTLLSQYKKIASDVNSGEDNNTEYEQELLYKQREKLTFVFCVYMNTMKRISGLSAARTVFGKCRKLKRILTHDVYVENAYLEFQNQNDYKTAFKVLELGLKYFQNDGVYINKYLDFLIFLNKDSQIKTLFETSVEKVQDLTQLKEIYKKMISYESKFGNLNNVYSLEKRFFERFPQENLIEVFTSRYQIQNSNLIKKLELTYMYNEEEDSYFSSGNGDGHHGSYNMSSSDRKRLMEETGNNGNFSNKKFKRDSELPTEVLDLLSVIPKRQYFNTNLLDAQKLVNFLNDQVEIPTVESTKSG

The assay deals with T1, TFIIB sua7-1 mutant (E62K) (S. cerevisiae). Put plainly: affinity purification with mass spectrometry; TFIIB affinity purified from chromatin and soluble fractions of S. cerevisiae TFIIB^WT and TFIIB^sua7-1 (sua7-1-HA, WA158) cells; quantitative proteomics, TFIIB-normalized spectral abundance factor (BNSAF); four replicates.
As to Pcf11 (from UniProt P39081 1-626), the binding result is “binds”. The entry for B1 is “binds”. The entry for B2 is “binds”; for B3 it is “binds”.
